No constants are given. Whether binding was seen depends on the method and setting. Binding seen in cells or lysates may run through a third protein. Some results given as binding are weak or reduced against the parent protein; the word gives no strength. For some of these results: Sequences can lack the tags named with a protein.
Legend:
[1] = target: T1, Checkpoint suppressor 1 (CHES1), endogenous (human (endogenous in MDA-MB-231, BT549, MCF7)) (UniProt O00409); experiment: co-IP; endogenous proteins in lysate of MCF7 cells (ERα+); Protein A&G magnetic beads
T1 sequence: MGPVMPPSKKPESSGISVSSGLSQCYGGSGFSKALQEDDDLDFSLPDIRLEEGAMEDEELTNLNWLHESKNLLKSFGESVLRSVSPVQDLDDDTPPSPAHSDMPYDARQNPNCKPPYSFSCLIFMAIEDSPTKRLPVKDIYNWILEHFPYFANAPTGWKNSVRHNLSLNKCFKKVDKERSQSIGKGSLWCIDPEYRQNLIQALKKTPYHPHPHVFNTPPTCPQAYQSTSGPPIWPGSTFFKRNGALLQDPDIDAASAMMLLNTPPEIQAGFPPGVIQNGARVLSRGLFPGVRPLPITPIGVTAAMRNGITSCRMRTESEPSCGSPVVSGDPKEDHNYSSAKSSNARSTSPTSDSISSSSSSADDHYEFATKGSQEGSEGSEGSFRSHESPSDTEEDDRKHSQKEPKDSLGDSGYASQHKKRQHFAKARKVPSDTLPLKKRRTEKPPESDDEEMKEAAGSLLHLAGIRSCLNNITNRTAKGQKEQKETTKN

The chains behind the UniProt entries cited, without tags or fusion partners.
UniProt Q13547: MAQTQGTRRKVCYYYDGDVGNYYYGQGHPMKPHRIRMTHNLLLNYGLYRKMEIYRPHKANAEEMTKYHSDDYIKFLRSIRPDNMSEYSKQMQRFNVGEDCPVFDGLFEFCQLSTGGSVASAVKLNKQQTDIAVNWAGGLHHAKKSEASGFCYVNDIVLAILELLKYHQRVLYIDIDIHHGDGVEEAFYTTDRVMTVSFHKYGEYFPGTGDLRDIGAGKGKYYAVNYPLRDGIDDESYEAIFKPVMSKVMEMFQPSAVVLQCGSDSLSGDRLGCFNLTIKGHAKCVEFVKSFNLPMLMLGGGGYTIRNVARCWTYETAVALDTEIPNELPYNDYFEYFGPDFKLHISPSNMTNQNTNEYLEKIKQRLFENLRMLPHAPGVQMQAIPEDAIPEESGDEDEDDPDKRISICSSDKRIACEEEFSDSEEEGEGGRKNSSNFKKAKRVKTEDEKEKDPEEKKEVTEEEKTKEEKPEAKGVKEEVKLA
UniProt Q09472: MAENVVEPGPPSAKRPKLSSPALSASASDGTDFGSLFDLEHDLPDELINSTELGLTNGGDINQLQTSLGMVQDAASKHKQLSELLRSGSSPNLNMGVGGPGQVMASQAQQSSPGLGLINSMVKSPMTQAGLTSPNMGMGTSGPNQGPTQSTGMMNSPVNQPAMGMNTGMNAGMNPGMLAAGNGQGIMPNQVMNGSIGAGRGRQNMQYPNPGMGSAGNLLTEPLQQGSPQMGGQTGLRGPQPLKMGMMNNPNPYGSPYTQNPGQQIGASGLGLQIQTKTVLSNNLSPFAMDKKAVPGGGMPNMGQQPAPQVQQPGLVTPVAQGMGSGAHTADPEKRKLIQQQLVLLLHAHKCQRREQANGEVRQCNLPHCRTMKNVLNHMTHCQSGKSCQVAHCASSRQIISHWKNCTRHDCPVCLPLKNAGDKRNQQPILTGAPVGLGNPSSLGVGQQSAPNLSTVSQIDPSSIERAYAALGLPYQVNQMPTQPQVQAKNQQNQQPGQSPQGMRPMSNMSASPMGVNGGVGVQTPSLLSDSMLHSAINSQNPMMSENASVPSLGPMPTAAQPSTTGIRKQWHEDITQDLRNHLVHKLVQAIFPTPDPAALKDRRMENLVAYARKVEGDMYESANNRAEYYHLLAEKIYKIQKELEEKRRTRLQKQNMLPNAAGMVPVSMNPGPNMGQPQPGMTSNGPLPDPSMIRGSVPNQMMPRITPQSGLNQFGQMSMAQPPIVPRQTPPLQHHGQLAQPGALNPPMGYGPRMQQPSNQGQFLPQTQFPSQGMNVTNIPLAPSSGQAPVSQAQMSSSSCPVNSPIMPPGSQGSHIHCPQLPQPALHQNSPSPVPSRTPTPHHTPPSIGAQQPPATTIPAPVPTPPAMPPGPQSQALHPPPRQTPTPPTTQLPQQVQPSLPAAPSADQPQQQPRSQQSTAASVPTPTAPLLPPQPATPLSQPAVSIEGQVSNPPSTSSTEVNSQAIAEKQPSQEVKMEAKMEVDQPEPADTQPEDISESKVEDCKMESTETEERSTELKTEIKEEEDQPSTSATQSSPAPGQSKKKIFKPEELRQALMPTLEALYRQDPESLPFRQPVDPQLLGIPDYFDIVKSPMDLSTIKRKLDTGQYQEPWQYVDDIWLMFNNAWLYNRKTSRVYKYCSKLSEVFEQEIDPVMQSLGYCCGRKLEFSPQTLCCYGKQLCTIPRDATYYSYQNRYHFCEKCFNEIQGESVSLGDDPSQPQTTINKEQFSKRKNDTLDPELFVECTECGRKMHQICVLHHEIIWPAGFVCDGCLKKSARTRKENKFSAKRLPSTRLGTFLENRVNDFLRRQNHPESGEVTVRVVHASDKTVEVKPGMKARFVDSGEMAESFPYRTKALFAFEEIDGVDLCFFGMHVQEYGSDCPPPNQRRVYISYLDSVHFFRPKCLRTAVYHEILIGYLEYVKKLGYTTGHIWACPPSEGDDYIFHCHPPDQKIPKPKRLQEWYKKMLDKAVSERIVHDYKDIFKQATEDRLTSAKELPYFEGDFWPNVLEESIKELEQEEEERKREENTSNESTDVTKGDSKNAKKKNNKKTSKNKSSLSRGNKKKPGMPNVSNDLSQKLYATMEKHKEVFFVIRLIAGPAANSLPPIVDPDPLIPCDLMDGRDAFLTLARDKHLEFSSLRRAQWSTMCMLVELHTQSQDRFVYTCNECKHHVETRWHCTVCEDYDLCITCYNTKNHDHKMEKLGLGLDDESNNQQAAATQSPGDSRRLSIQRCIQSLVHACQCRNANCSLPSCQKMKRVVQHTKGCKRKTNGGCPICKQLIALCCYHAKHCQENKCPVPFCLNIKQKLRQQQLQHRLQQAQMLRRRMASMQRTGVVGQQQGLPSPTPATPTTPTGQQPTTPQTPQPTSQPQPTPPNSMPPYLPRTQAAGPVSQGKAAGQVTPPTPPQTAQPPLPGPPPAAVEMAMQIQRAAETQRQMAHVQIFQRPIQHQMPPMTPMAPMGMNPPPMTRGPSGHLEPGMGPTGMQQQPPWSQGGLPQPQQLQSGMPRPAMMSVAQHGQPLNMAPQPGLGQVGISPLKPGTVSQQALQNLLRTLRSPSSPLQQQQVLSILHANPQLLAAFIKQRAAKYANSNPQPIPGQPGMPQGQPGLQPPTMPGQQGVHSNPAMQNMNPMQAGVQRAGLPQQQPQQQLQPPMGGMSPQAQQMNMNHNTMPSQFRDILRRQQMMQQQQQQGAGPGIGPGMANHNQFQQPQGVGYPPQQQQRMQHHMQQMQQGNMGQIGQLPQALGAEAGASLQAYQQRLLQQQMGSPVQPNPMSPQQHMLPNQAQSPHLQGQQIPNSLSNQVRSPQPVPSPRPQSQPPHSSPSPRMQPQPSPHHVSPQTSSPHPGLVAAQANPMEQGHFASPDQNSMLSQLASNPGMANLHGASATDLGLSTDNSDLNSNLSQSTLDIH

[2] = target: T1, Checkpoint suppressor 1 (CHES1), endogenous (human (endogenous in MDA-MB-231, BT549, MCF7)); experiment: co-IP; endogenous proteins in lysates of TNBC cells (Fig. 5E: MDA-MB-231); Protein A&G magnetic beads
Flag-CHES1 wild type = target: T2, Flag-CHES1 wild type (UniProt O00409); experiment: co-IP; exogenous CHES1 WT or KR mutant precipitated from cell lysate, p300 detected by blot; cell line not stated
T2 sequence: T1 sequence

binding [1] | binding (Flag-CHES1 wild type) | Substance | binding [2]
binds | – | HDAC1, endogenous (from UniProt Q13547 1-482) (enzyme) | no binding (condition: in TNBC cells (MDA-MB-231))
– | binds | p300 (in the co-IP with Flag-CHES1 WT and KR) (from UniProt Q09472 1-2414) (enzyme) | –
– | – | p300, endogenous (from UniProt Q09472 1-2414) (enzyme) | binds
